The target in this test is T1, 3xFLAG-IncD (C. trachomatis (L2/434/Bu)) (UniProt B0B9M3).
T1 sequence: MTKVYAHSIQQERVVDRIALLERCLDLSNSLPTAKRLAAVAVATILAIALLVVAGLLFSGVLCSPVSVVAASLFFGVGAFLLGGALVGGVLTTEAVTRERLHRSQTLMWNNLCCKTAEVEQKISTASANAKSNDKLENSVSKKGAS
Kind of test: co-IP; HEK293 co-transfected 48 h; lysis in 20 mM Tris pH 7.5, 150 mM NaCl, 2 mM EDTA, 1% Triton X-100; anti-FLAG M2 agarose beads 2 h, 4°C; eluted with 3XFLAG peptide; immunoblot with anti-GFP and anti-FLAG. In general terms: In western blotting, separated proteins are transferred to a membrane and probed.

This passage reports binding results from PMC3121800.

Results are given in words; binding and its absence hold for the method and conditions named. In cells and extracts the contact can be indirect. Where a sequence is shown, tags or fusion partners need not be part of it.

Consider “CERTΔPH-GFP construct lacking the PH domain (domain or fragment)”, for which the binding entry is “no binding”.
